pKi: −log10 of the molar value. For at least one compound, name, drawing or mass did not settle the structure.
Target: PCP recognition sites
Experiment: [3H]TCP Radioreceptor Assay (internal screen)
Type: binding, rat (male Sprague-Dawley
Conditions: rat whole brain membranes; ~1 nM [3H]TCP; room temperature, 25 min
Procedure: [^3 H]TCP Radioreceptor Assay (internal screen)
[^3 H]TCP binding to PCP recognition sites was performed as described by Vignon et al. Brain Research 1983, 280, 194°197. Male Sprague-Dawley rats were sacrificed by decapitation, and whole brains were homogenized in 10 volumes (wt/vol) of cold Tris-HCl buffer (50 mM, pH 7.7) using a Brinkmann Polytron (setting 6, 30 sec). The homogenate was centrifuged at 40,000×g for 10 min at 4° C. The supernatant was decanted, and the homogenization and centrifugation steps were repeated twice as described above. Following this, the pellet was resuspended in Tris-HCl (5 mM, pH 7.7) at a tissue concentration of 0.5°0.75 g/ml, and one ml aliquots were frozen at -70° C. until use. […]
On the day of the assay, membrane aliquots were thawed, resuspended in fresh 5 mM Tris-HCl buffer at a tissue concentration of 1 mg/ml, and stored on ice until use. […] Following addition of scintillation cocktail, the amount of bound radioactivity was determined by liquid scintillation spectrometry using a Beckman LS 5000TA liquid scintillation counter with an efficiency for tritium of approximately 55% . Inhibition constants (Ki values) were calculated using the EBDA/LIGAND program (McPherson, J. Pharmacol. Meth. 1985, 14, 213-228), purchased from Elsevier/Biosoft, Inc. Results are reported as Ki values or as a percent (%) inhibition of binding at 10

How did the pKi turn out when CCOC1(OCC)C2c3ccccc3C(C1C)[n+]1ccccc12 (single isomer, unassigned) [Example 37, 6,11-ethano-12,12-diethoxy-13-methyl-6,11-dihydrobenzo[b]quinolizinium] was run?
The pKi was 6.94.

Reference: US5380729A, “12-hetero substituted 6,11-ethano-6,11-dihydrobenzo (b) quinolizinium salts and compositions and method of use thereof” (Sterling Winthrop Inc., priority 1993, dated 1995)
